Laboratory results from patent US4238472A, “Radioimmunoassay for chlorinated dibenzo-p-dioxins” (priority 1978, dated 1980).

System: antisera GC-5 and F-12
Experiment: Detection of 2,3,7,8-TCDD in spiked, sandy soil samples by radioimmunoassay
Design: species or system rabbit
Conditions: antiserum dilution binding 33% of hapten

`Clc1cc2c(cc1Cl)Oc1cc(Cl)c(Cl)cc1O2` [2,3,7,8-TCDD, 2,3,7,8-tetrachlorodibenzo-p-dioxin] gave a detectable amount ("Cutscum", either antiserum) of 0.7 picomole and a detectable amount ("Triton X-305" replacing "Cutscum") of 0.08 picomole.
